The results in this text go back to PMC10748395.

Results are given in words; binding and its absence hold for the method and conditions named. In cells and extracts the contact can be indirect. Here binding means that the protein was enriched with, or labelled near, the bait; the list need not be complete.

The target of the assay is T1, endogenous MACC1 of SW620 cells (human (endogenous in SW620)) (UniProt Q6ZN28).
T1 sequence: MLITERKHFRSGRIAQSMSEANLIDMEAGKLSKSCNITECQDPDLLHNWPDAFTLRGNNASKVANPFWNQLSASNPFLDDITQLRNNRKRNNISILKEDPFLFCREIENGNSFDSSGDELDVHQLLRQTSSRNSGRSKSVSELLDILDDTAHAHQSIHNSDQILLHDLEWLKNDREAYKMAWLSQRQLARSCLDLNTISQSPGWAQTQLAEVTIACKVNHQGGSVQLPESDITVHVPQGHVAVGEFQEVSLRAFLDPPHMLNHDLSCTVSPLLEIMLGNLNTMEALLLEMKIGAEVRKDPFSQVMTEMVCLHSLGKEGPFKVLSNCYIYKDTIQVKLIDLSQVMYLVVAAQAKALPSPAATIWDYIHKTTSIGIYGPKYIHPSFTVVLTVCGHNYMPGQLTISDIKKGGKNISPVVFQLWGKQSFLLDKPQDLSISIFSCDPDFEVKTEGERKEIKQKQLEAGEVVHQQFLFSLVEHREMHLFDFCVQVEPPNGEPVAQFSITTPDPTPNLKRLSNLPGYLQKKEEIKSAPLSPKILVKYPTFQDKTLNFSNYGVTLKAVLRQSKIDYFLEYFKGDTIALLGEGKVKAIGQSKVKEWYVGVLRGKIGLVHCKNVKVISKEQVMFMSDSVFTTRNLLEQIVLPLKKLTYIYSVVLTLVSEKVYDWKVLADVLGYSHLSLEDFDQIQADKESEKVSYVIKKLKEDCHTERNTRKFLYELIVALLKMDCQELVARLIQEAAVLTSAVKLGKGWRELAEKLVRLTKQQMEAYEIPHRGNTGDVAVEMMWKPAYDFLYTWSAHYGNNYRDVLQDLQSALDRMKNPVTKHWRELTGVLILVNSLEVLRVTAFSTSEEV
Briefly: affinity purification with mass spectrometry; two independent immunoprecipitations of endogenous MACC1 from SW620 cells with two different MACC1 antibodies, eluates to shot-gun quantitative mass spectrometry (cLC-ESI-MS).

B1: GIPC1 in colorectal cancer cell lysates (SW620, SW480) (protein, UniProt O14908 1-333)
chain: MPLGLGRRKKAPPLVENEEAEPGRGGLGVGEPGPLGGGGSGGPQMGLPPPPPALRPRLVFHTQLAHGSPTGRIEGFTNVKELYGKIAEAFRLPTAEVMFCTLNTHKVDMDKLLGGQIGLEDFIFAHVKGQRKEVEVFKSEDALGLTITDNGAGYAFIKRIKEGSVIDHIHLISVGDMIEAINGQSLLGCRHYEVARLLKELPRGRTFTLKLTEPRKAFDMISQRSAGGRPGSGPQLGTGRGTLRLRSRGPATVEDLPSAFEEKAIEKVDDLLESYMGIRDTELAATMVELGKDKRNPDELAEALDERLGDFAFPDEFVFDVWGAIGDAKVGRY
For B1, the binding result is listed as “binds”.
